Results are given in words; binding and its absence hold for the method and conditions named. Some binding calls cover weakened binding; strength is not graded here.
Key:
[1] = target: T1, recombinant human EphA5 (rhEphA5) antigen (Homo sapiens, UniProt P54756); assay: SPR (Biacore T200), multi-cycle kinetics, IgG captured on anti-human IgG chip, human EphA5 as analyte
[2] = target: T1, recombinant human EphA5 (rhEphA5) antigen; assay: SPR (Biacore T200), single cycle kinetics, IgG captured on anti-human IgG CM5 chip, rhEphA5 as analyte
[3] = target: T1, recombinant human EphA5 (rhEphA5) antigen; assay: Biacore T200 single cycle kinetics, IgG from HEK supernatant captured on anti-human IgG CM5 chip, human EphA5 as analyte
[4] = target: T1, recombinant human EphA5 (rhEphA5) antigen; assay: Biacore T200 multi-cycle kinetics, purified IgG captured, recombinant EphA5 as analyte
[5] = target: T1, recombinant human EphA5 (rhEphA5) antigen; assay: Biacore T200 multi-cycle kinetics, purified IgG captured on anti-human IgG CM5 chip, recombinant EphA5 as analyte
[6] = target: T1, recombinant human EphA5 (rhEphA5) antigen; assay: SPR (Biacore T200), multi-cycle kinetics, IgG captured on anti-human IgG chip, human EphA5 as analyte [continued]

By UniProt entry, the sequences of proteins in these tests, tags left out. Where a name states a change or a piece, a line headed by the entry shows the natural chain unless it says otherwise.
UniProt P54756: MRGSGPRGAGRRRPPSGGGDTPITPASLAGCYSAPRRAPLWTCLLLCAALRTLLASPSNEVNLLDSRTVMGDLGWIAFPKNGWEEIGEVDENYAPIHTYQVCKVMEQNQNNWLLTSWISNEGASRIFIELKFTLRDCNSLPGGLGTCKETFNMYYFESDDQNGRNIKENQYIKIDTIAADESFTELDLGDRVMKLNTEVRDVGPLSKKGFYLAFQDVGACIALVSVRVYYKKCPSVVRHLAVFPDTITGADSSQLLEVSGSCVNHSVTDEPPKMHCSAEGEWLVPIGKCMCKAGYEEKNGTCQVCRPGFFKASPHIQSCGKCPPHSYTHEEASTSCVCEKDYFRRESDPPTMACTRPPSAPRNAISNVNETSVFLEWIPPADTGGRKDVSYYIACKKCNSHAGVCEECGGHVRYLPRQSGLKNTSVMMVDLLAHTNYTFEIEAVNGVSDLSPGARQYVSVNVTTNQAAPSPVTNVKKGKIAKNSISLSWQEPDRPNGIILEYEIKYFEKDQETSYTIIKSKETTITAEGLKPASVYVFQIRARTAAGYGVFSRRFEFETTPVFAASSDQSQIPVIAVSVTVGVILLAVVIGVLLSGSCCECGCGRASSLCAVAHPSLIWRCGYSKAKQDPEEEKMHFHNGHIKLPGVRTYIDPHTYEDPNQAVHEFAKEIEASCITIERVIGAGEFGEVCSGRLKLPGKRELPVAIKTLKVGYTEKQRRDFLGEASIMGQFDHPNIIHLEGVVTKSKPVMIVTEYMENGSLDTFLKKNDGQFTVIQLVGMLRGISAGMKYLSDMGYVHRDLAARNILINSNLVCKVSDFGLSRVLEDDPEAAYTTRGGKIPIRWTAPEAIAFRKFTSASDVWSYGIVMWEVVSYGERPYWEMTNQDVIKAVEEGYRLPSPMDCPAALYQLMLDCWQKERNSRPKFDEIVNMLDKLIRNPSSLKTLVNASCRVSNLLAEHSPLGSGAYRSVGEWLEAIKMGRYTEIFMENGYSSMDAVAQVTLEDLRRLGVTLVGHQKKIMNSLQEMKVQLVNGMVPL

B1: chimeric antibody VH0/VK0 (murine 11C12 variable regions, human IgG1 and kappa constant regions) (antibody, V domains shown)
VH: EVTLKESGGGLVQPGGSRKLSCAASGFTFSTFGIHWVRQAPEKGLEWVAYISGASTTIYYADTVKGRFTISRDNPKNTLFLQMTSLRSEDTAMYYCARYGTSFPYGLDYWGQGTSVTVSS
VL: DIVMTQSPGSLAVSLGQRATISCKASQSVDYDGDSYMNWYQQKPGQPPKLLIYGASNLESGIPARFSGSGSGTDFTLNIHPVEEEDAASYYCQQSNEDPFTFGSGTKLEIKR
For B1, which binding [1] is on record?
The binding was “binds”.

And the binding [2]?
Its binding is “binds”.

B2: VH4/VK1 (antibody, human IgG1, kappa, V domains shown)
VH: EVQLVESGGGLVQPGGSLKLSCAASGFTFSTFGIHWVRQAPGKGLEWVAYISGASTTIYYADTVKGRFTISRDNSKNTLYLQMNSLRAEDTAVYYCARYGTSFPYGLDYWGQGTLVTVSS
VL: DIVMTQSPGSLAVSLGERATINCKASQSVDYDGDSYMNWYQQKPGKAPKLLIYGASNLESGIPDRFSGSGSGTDFTLTISRLEEEDAASYYCQQSNEDPFTFGQGTKLEIKR
What does the source list for B2?
binding [3]: binds; binding [2]: binds

B3: VH4/VK2 (antibody, human IgG1, kappa, V domains shown)
VH: EVQLVESGGGLVQPGGSLKLSCAASGFTFSTFGIHWVRQAPGKGLEWVAYISGASTTIYYADTVKGRFTISRDNSKNTLYLQMNSLRAEDTAVYYCARYGTSFPYGLDYWGQGTLVTVSS
VL: DIVMTQSPDSLAVSLGERATINCKASQSVDYDGDSYMNWYQQKPGKAPKLLIYGASNLESGIPDRFSGSGSGTDFTLTISRLEPEDAASYYCQQSNEDPFTFGQGTKLEIKR
With B3 as the binder, how does the binding [3] read?
Its binding is “binds”.

What about the binding [2] of the same binder?
The binding was “binds”.

B4: VH4/VK4 (antibody, human IgG1, kappa, V domains shown)
VH: EVQLVESGGGLVQPGGSLKLSCAASGFTFSTFGIHWVRQAPGKGLEWVAYISGASTTIYYADTVKGRFTISRDNSKNTLYLQMNSLRAEDTAVYYCARYGTSFPYGLDYWGQGTLVTVSS
VL: DIVMTQSPDSLAVSLGERATINCKSSQSVDYDGDSYMNWYQQKPGKAPKLLIYGASNLESGIPDRFSGSGSGTDFTLTISRLEPEDAASYYCQQSNEDPFTFGQGTKLEIKR
With B4 as the binder, how does the binding [3] read?
The binding was “binds”.

What about the binding [1] of the same binder?
The binding was “binds”.

And the binding [4]?
The binding was “binds”.

And the binding [5]?
Its binding is “binds”.

What about the binding [2] of the same binder?
Its binding is “binds”.

B5: VH4/VK5 (antibody, human IgG1, kappa, V domains shown)
VH: EVQLVESGGGLVQPGGSLKLSCAASGFTFSTFGIHWVRQAPGKGLEWVAYISGASTTIYYADTVKGRFTISRDNSKNTLYLQMNSLRAEDTAVYYCARYGTSFPYGLDYWGQGTLVTVSS
VL: DIVMTQSPDSLAVSLGERATINCKSSQSVDYDGDSYMNWYQQKPGKAPKLLIYGASNLESGIPDRFSGSGSGTDFTLTISRLEPEDAAVYYCQQSNEDPFTFGQGTKLEIKR
With B5 as the binder, how does the binding [3] read?
Its binding is “binds”.

What about the binding [2] of the same binder?
The binding was “binds”.

B6: VH5/VK1 (antibody, human IgG1, kappa, V domains shown)
VH: EVQLVESGGGLVQPGGSLKLSCAASGFTFSTFGIHWVRQAPGKGLEWVAYISGASTTIYYADSVKGRFTISRDNSKNTLYLQMNSLRAEDTAVYYCARYGTSFPYGLDYWGQGTLVTVSS
VL: DIVMTQSPGSLAVSLGERATINCKASQSVDYDGDSYMNWYQQKPGKAPKLLIYGASNLESGIPDRFSGSGSGTDFTLTISRLEEEDAASYYCQQSNEDPFTFGQGTKLEIKR
For B6, which binding [3] is on record?
Its binding is “binds”.

And the binding [2]?
Its binding is “binds”.

B7: VH5/VK2 (antibody, human IgG1, kappa, V domains shown)
VH: EVQLVESGGGLVQPGGSLKLSCAASGFTFSTFGIHWVRQAPGKGLEWVAYISGASTTIYYADSVKGRFTISRDNSKNTLYLQMNSLRAEDTAVYYCARYGTSFPYGLDYWGQGTLVTVSS
VL: DIVMTQSPDSLAVSLGERATINCKASQSVDYDGDSYMNWYQQKPGKAPKLLIYGASNLESGIPDRFSGSGSGTDFTLTISRLEPEDAASYYCQQSNEDPFTFGQGTKLEIKR
Which binding [6] does the source give for B7 here?
Its binding is “binds”.

And the binding [3]?
Its binding is “binds”.

What about the binding [4] of the same binder?
The binding was “binds”.

And the binding [5]?
The binding was “binds”.

What about the binding [2] of the same binder?
The binding was “binds”.

B8: VH5/VK4 (antibody, human IgG1, kappa, V domains shown)
VH: EVQLVESGGGLVQPGGSLKLSCAASGFTFSTFGIHWVRQAPGKGLEWVAYISGASTTIYYADSVKGRFTISRDNSKNTLYLQMNSLRAEDTAVYYCARYGTSFPYGLDYWGQGTLVTVSS
VL: DIVMTQSPDSLAVSLGERATINCKSSQSVDYDGDSYMNWYQQKPGKAPKLLIYGASNLESGIPDRFSGSGSGTDFTLTISRLEPEDAASYYCQQSNEDPFTFGQGTKLEIKR
What does the source list for B8?
binding [6]: binds; binding [3]: binds; binding [4]: binds; binding [5]: binds; binding [2]: binds

B9: VH5/VK5 (antibody, human IgG1, kappa, V domains shown)
VH: EVQLVESGGGLVQPGGSLKLSCAASGFTFSTFGIHWVRQAPGKGLEWVAYISGASTTIYYADSVKGRFTISRDNSKNTLYLQMNSLRAEDTAVYYCARYGTSFPYGLDYWGQGTLVTVSS
VL: DIVMTQSPDSLAVSLGERATINCKSSQSVDYDGDSYMNWYQQKPGKAPKLLIYGASNLESGIPDRFSGSGSGTDFTLTISRLEPEDAAVYYCQQSNEDPFTFGQGTKLEIKR
Which binding [3] does the source give for B9 here?
The binding was “binds”.

And the binding [2]?
The binding was “binds”.

B10: VH6/VK1 (antibody, human IgG1, kappa, V domains shown)
VH: EVQLVESGGGLVQPGGSLKLSCAASGFTFSTFGIHWVRQAPGKGLEWVASISGASTTIYYADSVKGRFTISRDNSKNTLYLQMNSLRAEDTAVYYCARYGTSFPYGLDYWGQGTLVTVSS
VL: DIVMTQSPGSLAVSLGERATINCKASQSVDYDGDSYMNWYQQKPGKAPKLLIYGASNLESGIPDRFSGSGSGTDFTLTISRLEEEDAASYYCQQSNEDPFTFGQGTKLEIKR
With B10 as the binder, how does the binding [3] read?
The binding was “binds”.

And the binding [2]?
Its binding is “binds”.

B11: VH6/VK2 (antibody, human IgG1, kappa, V domains shown)
VH: EVQLVESGGGLVQPGGSLKLSCAASGFTFSTFGIHWVRQAPGKGLEWVASISGASTTIYYADSVKGRFTISRDNSKNTLYLQMNSLRAEDTAVYYCARYGTSFPYGLDYWGQGTLVTVSS
VL: DIVMTQSPDSLAVSLGERATINCKASQSVDYDGDSYMNWYQQKPGKAPKLLIYGASNLESGIPDRFSGSGSGTDFTLTISRLEPEDAASYYCQQSNEDPFTFGQGTKLEIKR
Which results are given for B11?
binding [3]: binds; binding [2]: binds

B12: VH6/VK3 (antibody, human IgG1, kappa, V domains shown)
VH: EVQLVESGGGLVQPGGSLKLSCAASGFTFSTFGIHWVRQAPGKGLEWVASISGASTTIYYADSVKGRFTISRDNSKNTLYLQMNSLRAEDTAVYYCARYGTSFPYGLDYWGQGTLVTVSS
VL: DIVMTQSPDSLAVSLGERATINCKASQSVDYDGDSYMNWYQQKPGKAPKLLIYGASNLESGIPDRFSGSGSGTDFTLTISRLEPEDAAVYYCQQSNEDPFTFGQGTKLEIKR
With B12 as the binder, how does the binding [3] read?
Its binding is “binds”.

What about the binding [2] of the same binder?
The binding was “binds”.

B13: VH6/VK4 (antibody, human IgG1, kappa, V domains shown)
VH: EVQLVESGGGLVQPGGSLKLSCAASGFTFSTFGIHWVRQAPGKGLEWVASISGASTTIYYADSVKGRFTISRDNSKNTLYLQMNSLRAEDTAVYYCARYGTSFPYGLDYWGQGTLVTVSS
VL: DIVMTQSPDSLAVSLGERATINCKSSQSVDYDGDSYMNWYQQKPGKAPKLLIYGASNLESGIPDRFSGSGSGTDFTLTISRLEPEDAASYYCQQSNEDPFTFGQGTKLEIKR
Which results are given for B13?
binding [3]: binds; binding [2]: binds

B14: VH6/VK5 (antibody, human IgG1, kappa, V domains shown)
VH: EVQLVESGGGLVQPGGSLKLSCAASGFTFSTFGIHWVRQAPGKGLEWVASISGASTTIYYADSVKGRFTISRDNSKNTLYLQMNSLRAEDTAVYYCARYGTSFPYGLDYWGQGTLVTVSS
VL: DIVMTQSPDSLAVSLGERATINCKSSQSVDYDGDSYMNWYQQKPGKAPKLLIYGASNLESGIPDRFSGSGSGTDFTLTISRLEPEDAAVYYCQQSNEDPFTFGQGTKLEIKR
How did the binding [3] turn out when B14 was run?
Its binding is “binds”.

And the binding [2]?
The binding was “binds”.

— patent US20260216365A1, “ANTIBODY-DRUG CONJUGATES AGAINST THE RECEPTOR TYROSINE KINASE EPHA5” (Rutgers, The State University of New Jersey, priority 2021, published 2026)
